For one substance, binding results are on record in article PMC4342582.

Amino acid sequences for entries named in this document (tags omitted).
UniProt Q9NZI8: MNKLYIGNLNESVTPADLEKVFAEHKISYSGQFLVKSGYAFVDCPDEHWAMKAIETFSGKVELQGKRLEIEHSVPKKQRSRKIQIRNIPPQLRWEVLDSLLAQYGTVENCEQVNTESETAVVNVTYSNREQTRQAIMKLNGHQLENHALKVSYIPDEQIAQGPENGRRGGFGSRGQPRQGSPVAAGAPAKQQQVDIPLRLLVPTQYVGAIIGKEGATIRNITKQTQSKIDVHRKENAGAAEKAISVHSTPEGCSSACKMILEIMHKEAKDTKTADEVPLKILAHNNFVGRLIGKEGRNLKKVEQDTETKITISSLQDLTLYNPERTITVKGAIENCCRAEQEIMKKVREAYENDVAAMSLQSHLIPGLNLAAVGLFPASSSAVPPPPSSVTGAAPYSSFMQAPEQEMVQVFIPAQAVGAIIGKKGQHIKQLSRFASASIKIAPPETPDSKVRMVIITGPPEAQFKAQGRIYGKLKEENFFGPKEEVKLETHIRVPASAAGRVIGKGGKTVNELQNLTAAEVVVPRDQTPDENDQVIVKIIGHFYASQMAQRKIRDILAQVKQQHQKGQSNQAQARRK
UniProt P52732: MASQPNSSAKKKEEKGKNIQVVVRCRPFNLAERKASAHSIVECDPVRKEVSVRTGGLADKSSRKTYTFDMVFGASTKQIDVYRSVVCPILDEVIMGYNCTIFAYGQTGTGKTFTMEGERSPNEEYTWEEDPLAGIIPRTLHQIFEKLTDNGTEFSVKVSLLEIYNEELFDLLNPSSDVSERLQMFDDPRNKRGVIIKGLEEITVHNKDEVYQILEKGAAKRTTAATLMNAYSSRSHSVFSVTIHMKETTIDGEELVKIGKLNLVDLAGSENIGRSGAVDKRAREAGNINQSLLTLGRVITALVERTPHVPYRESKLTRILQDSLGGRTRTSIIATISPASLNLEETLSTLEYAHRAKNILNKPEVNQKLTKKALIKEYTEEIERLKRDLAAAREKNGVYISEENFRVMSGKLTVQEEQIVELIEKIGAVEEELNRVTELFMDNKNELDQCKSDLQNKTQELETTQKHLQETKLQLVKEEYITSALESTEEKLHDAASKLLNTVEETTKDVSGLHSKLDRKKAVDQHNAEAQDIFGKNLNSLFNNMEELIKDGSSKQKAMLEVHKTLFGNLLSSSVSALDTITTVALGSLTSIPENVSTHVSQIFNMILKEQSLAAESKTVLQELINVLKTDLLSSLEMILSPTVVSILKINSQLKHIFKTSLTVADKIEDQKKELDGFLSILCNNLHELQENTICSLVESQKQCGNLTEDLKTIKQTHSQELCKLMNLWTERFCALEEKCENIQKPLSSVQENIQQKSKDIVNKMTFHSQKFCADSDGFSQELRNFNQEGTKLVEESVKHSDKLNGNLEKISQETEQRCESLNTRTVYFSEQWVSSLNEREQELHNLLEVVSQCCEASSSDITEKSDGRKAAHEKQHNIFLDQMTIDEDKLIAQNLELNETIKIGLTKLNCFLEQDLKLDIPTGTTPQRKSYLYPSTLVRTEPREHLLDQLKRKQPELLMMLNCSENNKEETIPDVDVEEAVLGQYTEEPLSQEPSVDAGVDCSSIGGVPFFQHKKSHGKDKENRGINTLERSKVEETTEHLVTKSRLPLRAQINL

The assay has as its target FLAG-GFP-tagged human ZBP1 (human) (UniProt Q9NZI8). The experiment in a line: affinity purification with mass spectrometry; anti-FLAG M2 agarose beads, extract of MDA231/FLAG-GFP-ZBP1 cells treated with RNase, 6 h at 4°C; lysis buffer 10 mM HEPES pH 7.8, 100 mM NaCl, 10 mM KCl, 0.5% NP-40; Coomassie band cut out, MALDI-TOF.

Results are given in words; binding and its absence hold for the method and conditions named. Binding seen in cells or lysates may run through a third protein. A yes stands for co-enrichment or nearness to the bait. Other partners may have been found.

With “KIF11, endogenous (from UniProt P52732 1-1056)”, the binding result is recorded as “binds”.
